The target of this test is Bax (Bcl-2-associated X protein) (human (endogenous in HCT-116)), Q07812. Briefly: co-IP; anti-Bax antibody added to HCT-116 cell lysates, 2 h at ambient temperature, captured on protein G/A-agarose, washed three times with PBS; Western blot with PUMA, Bax 6A7 or Bax antibody; cells treated with pazopanib. To be noted: remark: other sources report otherwise. (In western blotting, separated proteins are transferred to a membrane and probed.)

These results are taken from PMC5356882.

Results are given in words; binding and its absence hold for the method and conditions named. Binding seen in cells or lysates may run through a third protein. Some binding calls cover weakened binding; strength is not graded here.

B1: PUMA (p53 up-regulated modulator of apoptosis), Q9BXH1 1-193 (protein)
chain: MARARQEGSSPEPVEGLARDGPRPFPLGRLVPSAVSCGLCEPGLAAAPAAPTLLPAAYLCAPTAPPAVTAALGGSRWPGGPRSRPRGPRPDGPQPSLSLAEQHLESPVPSAPGALAGGPTQAAPGVRGEEEQWAREIGAQLRRMADDLNAQYERRRQEEQQRHRPSPWRVLYNLIMGLLPLPRGHRAPEMEPN
For B1, the binding entry was “binds”.
